Drawing on article doi:10.1101/2024.06.24.600430, this text covers binding for one molecule.

In the experiment the target is TEF5-3xHA (Chlamydomonas reinhardtii). Nature of the experiment: affinity purification with mass spectrometry.

No constants are given. Whether binding was seen depends on the method and setting. In cells and extracts the contact can be indirect. These calls come from enrichment with a bait or labelling near it, and not all partners need be listed.

B1: PsaD (protein, UniProt Q39615 36-196)
chain: EAEAAPAAAKKAAEKPAWTVPTLNPDTPSPIFGGSTGGLLRKAQTEEFYVITWEAKKEQIFEMPTGGAAIMRQGPNLLKFGKKEQCLALTTQLRNKFKLTPCFYRVFPDGKVQYLHPADGVYPEKVNAGRVGANQNMRRIGQNVNPIKVKFSGRMMSPAEI
Regarding B1, the binding entry was “binds”.
